## Primary screen of a compound library

Source: ChEMBL document CHEMBL3988442, “University of Dundee, Small-Polar-MMV Screening Library” (2021).

The filed quantity is “Percent Effect” (%). The controls that fix the scale are not given in the record; negative values are as filed. Compounds were drawn at random from those tested, without regard to their results. A dash means the value is not listed here; it may have been measured.

Mtb growth Cornell: 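Whole-cell assay for inhibitors of Mycobacterium tuberculosis growth, labelled Cornell in the record; the read-out is not stated. The concentration is filed as 10 mM, unlikely as a test dose, so the dose is not known. Higher means stronger inhibition (inferred from two other growth screens of the library). Size under these conditions: about 53,000 compounds, about 900 of them at 50% or above in at least one test.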
Mtb heat-shock: 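Assay on Mycobacterium tuberculosis, filed only as a heat shock assay from Cornell; the read-out is not stated. The concentration is filed as 10 mM, unlikely as a test dose, so the dose is not known. The record gives no direction; compounds that gave an IC50 in retests scored well above the rest, so higher reads as stronger inhibition. Of about 69,000 compounds tested this way, about 930 (1.4%) reached 50% or more in at least one test.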

{"smiles": "CC(O)CN1CCC(CNCc2cccc(C(F)(F)F)c2)CC1", "stereo": "stereo not drawn", "Mtb heat-shock": -4.959}
{"smiles": "O=C(O)C(F)(F)F.[H][C@]12C[C@@H](CN(C)C)N(C(C)=O)[C@@]1([H])CCN(C(=O)c1occc1C)C2", "Mtb growth Cornell": 11.07, "Mtb heat-shock": -8.344}
{"smiles": "CC(C(=O)Nc1ccc2ccccc2c1)N1CCC(n2ccnc2)CC1", "stereo": "stereo not drawn", "Mtb growth Cornell": 1.387, "Mtb heat-shock": 7.387}
{"smiles": "Cc1cc(C)nc(N2CCN(C(=O)c3cc(Cl)c[nH]3)CC2)n1", "Mtb growth Cornell": 36.26, "Mtb heat-shock": -6.642}
{"smiles": "CCCn1c(C)c(CC(=O)N(C)CCOC)c2c1CC(C)(C)CC2=O", "Mtb growth Cornell": 20.32, "Mtb heat-shock": 7.952}
{"smiles": "CC(C)c1nccn1C1CCCN(C(=O)c2ccn(C)c(=O)c2)C1", "stereo": "stereo not drawn", "Mtb growth Cornell": 3.285, "Mtb heat-shock": 14.32}
{"smiles": "O=C(C1CCCN(Cc2cccc(F)c2)C1)N1CCc2sccc2C1", "stereo": "stereo not drawn", "Mtb growth Cornell": -9.302, "Mtb heat-shock": 7.375}
{"smiles": "CCCc1cc(N2CCC(NC3CCOCC3)CC2)nc(C)n1", "Mtb growth Cornell": -16.26, "Mtb heat-shock": -21.42}
{"smiles": "CCN(Cc1ccncc1)S(C)(=O)=O", "Mtb growth Cornell": -45.24, "Mtb heat-shock": -8.993}
{"smiles": "CCc1ncncc1C(=O)NCCNC(=O)c1ccc(C)c(F)c1", "Mtb growth Cornell": -5.993, "Mtb heat-shock": 49.59}
{"smiles": "O=C(c1ccccn1)N1CCC(Nc2cccnn2)CC1", "Mtb growth Cornell": -16.59, "Mtb heat-shock": -8.63}
{"smiles": "Cc1ccc(N2Cc3nc(=O)n(C(C)C)n3C2=O)cc1", "Mtb growth Cornell": 18.97, "Mtb heat-shock": 13.37}
{"smiles": "COc1ccc(-c2ccncc2)cc1CNC1CCCC1", "Mtb growth Cornell": 14.56, "Mtb heat-shock": -22.93}
{"smiles": "O=C(c1cn(CCN2CCCCC2)nn1)N1CCCCO1", "Mtb heat-shock": -22.01}
{"smiles": "Cc1cnn(CC2CCCN2C(=O)c2cccc(-n3cnnn3)c2)c1", "stereo": "stereo not drawn", "Mtb growth Cornell": 1.669, "Mtb heat-shock": 6.915}
{"smiles": "Cc1ccncc1NC(=O)C1CSc2ncc(C)c(=O)n2C1", "stereo": "stereo not drawn", "Mtb growth Cornell": -14.82, "Mtb heat-shock": -35.13}
{"smiles": "O=C(C1CCCCC1)N1CCC(c2n[nH]c3nccnc23)CC1", "Mtb heat-shock": -4.242}
{"smiles": "CS(=O)(=O)c1ccc(OCCCN2CCc3cncnc3C2)cc1", "Mtb heat-shock": -34.56}
{"smiles": "O=C1NCCN(CC2CC2)C12CCN(Cc1ccc3c(c1)OCO3)CC2", "Mtb growth Cornell": -50.71, "Mtb heat-shock": -24}
{"smiles": "Cc1nn(C)c2cn(CC(=O)NC3CCSCC3)nc12", "Mtb growth Cornell": -14.15, "Mtb heat-shock": -6.39}
{"smiles": "Cn1cc(Br)c(=O)c(NS(=O)(=O)c2cc(F)ccc2Cl)c1", "Mtb heat-shock": -14.55}
{"smiles": "COc1cc(NC2CCCN(c3ncccc3C#N)C2)cc(OC)c1", "stereo": "stereo not drawn", "Mtb growth Cornell": 2.195, "Mtb heat-shock": -10.46}
{"smiles": "Cn1cc(CCNC(=O)N2CCCC(Cc3nccn3C)C2)cn1", "stereo": "stereo not drawn", "Mtb growth Cornell": 4.557, "Mtb heat-shock": -0.6547}
{"smiles": "CCc1nc(C2CCCN(C(=O)C3=NN(C(C)C)C(=O)CC3)C2)no1", "stereo": "stereo not drawn", "Mtb growth Cornell": 14.54, "Mtb heat-shock": -1.935}
{"smiles": "COCCc1noc(CN2C(=O)OC[C@@H]2C(C)C)n1", "Mtb heat-shock": 2.303}
{"smiles": "CN1CCC(CCc2ccnc(Nc3cnccn3)c2)CC1", "Mtb growth Cornell": 17.6, "Mtb heat-shock": 1.249}
{"smiles": "Cc1c(NCC(C)(C)C)cccc1C(=O)N(C)Cc1ncnn1C", "Mtb growth Cornell": -93.6, "Mtb heat-shock": -19.09}
{"smiles": "CCc1nccn1CCC(=O)N1CC(=O)N(c2ccccc2C)CC1C", "stereo": "stereo not drawn", "Mtb growth Cornell": 28.42, "Mtb heat-shock": -18.85}
{"smiles": "CC(C)OCCCNC(=O)CN1CCN(c2nccs2)C(C)C1", "stereo": "stereo not drawn", "Mtb growth Cornell": -47.63, "Mtb heat-shock": -13.87}
{"smiles": "COC(C)(C)c1noc(C2(C#N)CCCC2)n1", "Mtb growth Cornell": -13.09, "Mtb heat-shock": 13.77}
{"smiles": "CN1CCN([C@@H]2CCN(C3CCOCC3)[C@H]2Cc2cnn(C)c2)CC1.O=C(O)C(F)(F)F.O=C(O)C(F)(F)F.O=C(O)C(F)(F)F", "Mtb growth Cornell": -28.54, "Mtb heat-shock": -1.696}
{"smiles": "CNC(=O)c1cccnc1Oc1ccccc1", "Mtb growth Cornell": 13.39, "Mtb heat-shock": -5.262}
{"smiles": "O=C(CCc1cc2n(n1)CCCN(Cc1ccccc1F)C2)NC1CC1", "Mtb growth Cornell": 13.13, "Mtb heat-shock": 0.6084}

Some entries from above, unchanged:

SMILES,Mtb growth Cornell,Mtb heat-shock
O=C(c1cn(CCN2CCCCC2)nn1)N1CCCCO1,-,-22.01%
CCc1ncncc1C(=O)NCCNC(=O)c1ccc(C)c(F)c1,-5.993%,49.59%
COC(C)(C)c1noc(C2(C#N)CCCC2)n1,-13.09%,13.77%